{"source": "PubChem BioAssay AID587", "about": "(National Center for Advancing Translational Sciences (NCATS), 2007)", "note": "Screen size: about 59,000 compounds; about 35 (0.06%) were called active. The shares of active, inactive and inconclusive entries below differ from those in the screen. No stated cut-off is given here; in the data, active means max dye-equivalent concentration above about 10 nM; inconclusive means between about 1.1 nM and that limit; inactive means weaker than that."}
{"assay": "qHTS Assay for Spectroscopic Profiling in Texas Red Spectral Region", "settings": "Compound fluorescence, Texas Red channel, 547/618 nm; active compounds read high", "summary_of_the_method": "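Compound fluorescence was read after 15 min at room temperature in 100 mM Tris, pH 8.0, using 547 nm excitation and 618 nm emission across a concentration series. It was expressed as Texas Red dye-equivalent concentration from an on-plate standard curve.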"}
{"smiles": "Cc1ccc2cccc(S(=O)(=O)NC3CCS(=O)(=O)C3)c2n1", "note": "(configuration not stated)", "max dye-equivalent concentration": "inconclusive: 1.5 nM"}
{"smiles": "Cc1nc2ccc(C(=O)O)cc2c2c1CC(C)S2", "note": "(configuration not stated)", "max dye-equivalent concentration": "inconclusive: 4 nM"}
{"smiles": "COCC(=O)N(C)c1nnc(-c2ccccn2)s1", "max dye-equivalent concentration": "inconclusive: 1.3 nM"}
{"smiles": "COC(=O)c1ccc(CNC(=O)COc2ccccc2Br)o1", "max dye-equivalent concentration": "inconclusive: 1.1 nM"}
{"smiles": "CC1=CC(=C2C(=O)c3ccccc3C2=O)C=C(C)O1", "max dye-equivalent concentration": "inconclusive: 2.4 nM"}
{"smiles": "CC(C)c1cc(C(F)(F)F)n2nc(C(=O)Nc3ccc4c(c3)OCO4)cc2n1", "max dye-equivalent concentration": "inconclusive: 1.7 nM"}
{"smiles": "Cc1nc2sc(C(=O)O)c(N)c2c2c1COC(C)(C)C2", "max dye-equivalent concentration": "inconclusive: 1.5 nM"}
{"smiles": "Cn1c(=O)c2c(nc(CN3CCN(C(=O)c4ccco4)CC3)n2Cc2ccc(Cl)cc2)n(C)c1=O", "max dye-equivalent concentration": "inconclusive: 1.1 nM"}
{"smiles": "COc1ccc(OC)c(-n2cnc3cc(C(=O)O)ccc32)c1", "max dye-equivalent concentration": "inconclusive: 1.3 nM"}
{"smiles": "NC(=O)C1=CN([C@@H]2O[C@@H](COP(=O)(O)OP(=O)(O)OC[C@@H]3O[C@H](n4cnc5c(N)ncnc54)[C@@H](OP(=O)(O)O)[C@@H]3O)[C@H](O)[C@@H]2O)C=CC1", "max dye-equivalent concentration": "inactive"}
{"smiles": "COc1ccc(-c2nc3ccccc3c(=O)n2CCCN2CCOCC2)cc1", "max dye-equivalent concentration": "inconclusive: 1.4 nM"}
{"smiles": "COc1cc(CN2CCC(C(=O)NC3CCCC3)CC2)cc(Br)c1O", "max dye-equivalent concentration": "inconclusive: 2.2 nM"}
{"smiles": "CCc1cc(C(=O)OC)c(N2C(=O)C3C4C=CC(C4)C3C2=O)s1", "note": "(configuration not stated)", "max dye-equivalent concentration": "inconclusive: 1.2 nM"}
{"smiles": "CCOC(=O)CSC1=NC(=O)CS1", "max dye-equivalent concentration": "inactive"}
{"smiles": "COc1cccc(Nc2cc(C)nc3ccccc23)c1", "max dye-equivalent concentration": "inconclusive: 1.3 nM"}
{"smiles": "COCCCn1c(SCC(=O)N(C)C)nnc1-c1ccccc1", "max dye-equivalent concentration": "inactive"}
{"smiles": "CCN1CCN(c2nc3c(c(=O)n(C)c(=O)n3C)n2CCSc2ncccn2)CC1", "max dye-equivalent concentration": "inconclusive: 1.2 nM"}
{"smiles": "COc1cccc(NC(=O)Cc2nnc(SCCOc3ccccc3)n2C)c1", "max dye-equivalent concentration": "inconclusive: 1.6 nM"}
{"smiles": "Clc1ccc(OCc2cn3cccnc3n2)c2ncccc12", "max dye-equivalent concentration": "inconclusive: 1.2 nM"}
{"smiles": "O=C1NC(Nc2nccs2)(C(F)(F)F)C(=O)N1CCc1ccccc1", "note": "(configuration not stated)", "max dye-equivalent concentration": "inconclusive: 1.1 nM"}
{"smiles": "Cc1c(NC(=O)COc2ncnc3c(Cl)cc(Cl)cc23)c(=O)n(-c2ccccc2)n1C", "max dye-equivalent concentration": "inconclusive: 1.1 nM"}
{"smiles": "Cc1ccc(C2C3CSCC=C3C(C#N)=C(N)C2(C#N)C#N)cc1", "note": "(configuration not stated)", "max dye-equivalent concentration": "inconclusive: 1.4 nM"}
{"smiles": "COc1ccccc1Nc1nc(N)nc(CN(C)C2CCCCC2)n1", "max dye-equivalent concentration": "inconclusive: 1.4 nM"}
{"smiles": "COC(=O)c1ccccc1S(=O)(=O)N(Cc1cc2ccc(OC)cc2[nH]c1=O)CC1CCCO1", "note": "(configuration not stated)", "max dye-equivalent concentration": "inconclusive: 1.9 nM"}
{"smiles": "CCCCOC(=O)CN1C(=O)c2ccc(C(=O)OCCCC)cc2C1=O", "max dye-equivalent concentration": "inconclusive: 1.3 nM"}
{"smiles": "COc1ccc(-n2cnc3c(sc4nccc(N(C)C)c43)c2=O)cc1", "max dye-equivalent concentration": "inconclusive: 1.2 nM"}
{"smiles": "O=C(COC(=O)Cn1cnc2ccccc21)Nc1ccc2c(c1)OCCO2", "max dye-equivalent concentration": "inconclusive: 2 nM"}
{"smiles": "CNCCNS(=O)(=O)c1cccc2cnccc12", "max dye-equivalent concentration": "inconclusive: 1.3 nM"}
{"smiles": "O=C(Cn1ccccc1=O)c1cccs1", "max dye-equivalent concentration": "inactive"}
{"smiles": "O=C(Nc1cccc(F)c1)N1CC[C@@]2(CCCN(C(=O)c3ccncc3)C2)C1", "max dye-equivalent concentration": "inactive"}
{"smiles": "CC(CC(=O)O)NCC1COc2ccccc2O1", "note": "(configuration not stated)", "max dye-equivalent concentration": "inconclusive: 2.5 nM"}
{"smiles": "COc1ccc(S(=O)(=O)Nc2cc(C(C)C)c(O)cc2C)cc1", "max dye-equivalent concentration": "inconclusive: 2.5 nM"}
{"smiles": "O=C(Nc1ccccc1)c1ccc(NCc2ccco2)c(S(=O)(=O)N2CCOCC2)c1", "max dye-equivalent concentration": "inconclusive: 1.7 nM"}
{"smiles": "O=C(O)c1cc2ccc3ccccc3c2[nH]1", "max dye-equivalent concentration": "inconclusive: 1.1 nM"}
{"smiles": "CN1CCN(/C=N/c2c(C#N)cnn2Cc2ccccc2)CC1", "max dye-equivalent concentration": "inconclusive: 1.3 nM"}
{"smiles": "CSc1nc2ccc(S(=O)(=O)N3CCOCC3)cc2s1", "max dye-equivalent concentration": "inconclusive: 1.1 nM"}
{"smiles": "COC(=O)N1CCC2(CC1)CN(C(c1ccccc1)c1ccccc1)C2", "max dye-equivalent concentration": "inactive"}
{"smiles": "CCOC(=O)c1cnc(-n2nc(C)cc2C)nc1NCCc1ccccc1", "max dye-equivalent concentration": "inconclusive: 1.6 nM"}
{"smiles": "CC1(C)C(c2ccccc2)=NC(c2ccc(F)cc2)N1O", "note": "(configuration not stated)", "max dye-equivalent concentration": "inconclusive: 1.7 nM"}
{"smiles": "Cn1c(SCC(=O)N2CCc3ccccc32)nnc1C1CC1", "max dye-equivalent concentration": "inconclusive: 1.3 nM"}
{"smiles": "CCOC(=O)[C@@H](O)Cc1cnc2ccccc2n1", "max dye-equivalent concentration": "inactive"}
{"smiles": "CC(=O)c1c(C)[nH]c(C(=O)Nc2cccnc2)c1C", "max dye-equivalent concentration": "inconclusive: 1.3 nM"}
{"smiles": "N#CC1=C(N)C(C#N)(C#N)C(c2ccc[nH]2)C2CCCC=C12", "note": "(configuration not stated)", "max dye-equivalent concentration": "inactive"}
{"smiles": "N#CC1=C(SCC(=O)Nc2cccc3cccnc23)NC(=O)C(C#N)C12CCCCC2", "note": "(configuration not stated)", "max dye-equivalent concentration": "inconclusive: 1.1 nM"}
{"smiles": "Cc1ccc(-c2cc(C(=O)NCC3CCCO3)no2)cc1", "note": "(configuration not stated)", "max dye-equivalent concentration": "inconclusive: 1.4 nM"}
{"smiles": "COc1cccc(-c2cc(C(=O)N3CC4(C)CC3CC(C)(C)C4)no2)c1", "note": "(configuration not stated)", "max dye-equivalent concentration": "inconclusive: 1.4 nM"}
{"smiles": "NC(=O)NC(=O)CSc1cccc(C(F)(F)F)c1", "max dye-equivalent concentration": "inconclusive: 1.5 nM"}
{"smiles": "CCOC(=O)c1sc(=S)n(CC)c1NC(=O)C1CC1", "max dye-equivalent concentration": "inconclusive: 1.2 nM"}
{"smiles": "Cn1nc(-c2ccc(N3CCOCC3)c(NC(=O)c3ccccc3)c2)c2ccccc2c1=O", "max dye-equivalent concentration": "inconclusive: 1.7 nM"}
{"smiles": "Cc1cccc(N(CC(=O)NC2CCCC2)C(=O)CS(=O)CC(=O)Nc2ccc3c(c2)OCO3)c1", "note": "(configuration not stated)", "max dye-equivalent concentration": "inconclusive: 1.1 nM"}
{"smiles": "COc1ccccc1NC(=O)CN(c1ccccc1F)S(C)(=O)=O", "max dye-equivalent concentration": "inconclusive: 1.3 nM"}
{"smiles": "Cc1c(/C(O)=C2\\C(=O)C(=O)N(CCN(C)C)C2c2cccnc2)cnn1-c1ccccc1", "note": "(configuration not stated)", "max dye-equivalent concentration": "inconclusive: 1.1 nM"}
{"smiles": "CCOC(=O)c1c(C)[nH]c(C)c1C(=O)COC(=O)c1cccc(S(=O)(=O)NC)c1", "max dye-equivalent concentration": "inconclusive: 1.8 nM"}
{"smiles": "N#C/C(=C\\c1ccc(O)c(O)c1)C(=O)Nc1ccccc1", "max dye-equivalent concentration": "inconclusive: 1.2 nM"}
{"smiles": "O=C(COC(=O)C12CC3CC(CC(O)(C3)C1)C2)Nc1ccccc1OC(F)F", "max dye-equivalent concentration": "inconclusive: 2.5 nM"}
{"smiles": "CC1CN(C(=O)CCn2c(=O)oc3ccccc32)CC(C)O1", "note": "(configuration not stated)", "max dye-equivalent concentration": "inconclusive: 1.2 nM"}
{"smiles": "N#Cc1cc2c(=O)n3ccccc3nc2n(Cc2cccnc2)c1=N", "max dye-equivalent concentration": "inconclusive: 2.2 nM"}
{"smiles": "CCN(CC)S(=O)(=O)c1cccc(C(=O)Nc2nncs2)c1", "max dye-equivalent concentration": "inconclusive: 1.6 nM"}
{"smiles": "Cc1cccc(Cc2c(C)nc3c(C(=O)NCc4ccco4)cnn3c2C)c1", "max dye-equivalent concentration": "inconclusive: 1.2 nM"}
{"smiles": "C/C(=N\\NC(=O)c1ccncc1)c1ccc2ccccc2c1O", "max dye-equivalent concentration": "inactive"}
{"smiles": "CCCCc1nccn1CCn1ccnc1CCCC", "max dye-equivalent concentration": "inconclusive: 1.8 nM"}
{"smiles": "CCN(CC)c1nc2ccccc2nc1C(C#N)C(=O)NCCCOC", "note": "(configuration not stated)", "max dye-equivalent concentration": "inactive"}
{"smiles": "COc1ccc(CNC(=O)C2CCN(C(=O)[C@@H](CC(C)C)NC(=O)OC(C)(C)C)CC2)cc1", "max dye-equivalent concentration": "inconclusive: 1.2 nM"}
{"smiles": "Cc1ccc(NC(=O)CNc2cccc(C)c2C)c(C)c1", "max dye-equivalent concentration": "inconclusive: 1.2 nM"}
{"smiles": "CN(Cc1ccccc1)c1oc(-c2ccco2)nc1C#N", "max dye-equivalent concentration": "inconclusive: 1.1 nM"}
{"smiles": "Cc1cc(N2CCN(C(=O)c3ccco3)CC2)n2ncc(-c3ccccc3)c2n1", "max dye-equivalent concentration": "inconclusive: 1.6 nM"}
{"smiles": "COc1ccc(-c2cc(C(F)(F)F)nc(S(=O)(=O)CCC(=O)N3CCOCC3)n2)cc1", "max dye-equivalent concentration": "inconclusive: 1.3 nM"}
{"smiles": "COc1cc(CO)cc(Br)c1OCc1cccnc1", "max dye-equivalent concentration": "inconclusive: 1.2 nM"}
{"smiles": "CC(=O)Nc1ccc(S(=O)(=O)N2CCSC2c2ccc(Cl)cc2)cc1", "note": "(configuration not stated)", "max dye-equivalent concentration": "inconclusive: 1.3 nM"}
{"smiles": "CCc1ccc2oc(-c3cc(N)ccc3Cl)nc2c1", "max dye-equivalent concentration": "inconclusive: 2.4 nM"}
{"smiles": "COc1ccc(OC)c(S(=O)(=O)NCCc2ccccc2)c1", "max dye-equivalent concentration": "inconclusive: 2.3 nM"}
{"smiles": "COc1ccc(CN2CCCCCC2)c(C)c1C", "max dye-equivalent concentration": "inconclusive: 1.1 nM"}
{"smiles": "CN1Cc2sc(N)c(C#N)c2CC1(C)C", "max dye-equivalent concentration": "inconclusive: 6.1 nM"}
{"smiles": "CCOc1cc2c(cc1OCC)C(C(=O)O)C(c1cc(Br)c(O)c(OC)c1)N(C)C2=O", "note": "(configuration not stated)", "max dye-equivalent concentration": "inconclusive: 1.2 nM"}
{"smiles": "COc1ccc(OC)c(NC(=O)c2cc(S(=O)(=O)NCc3ccco3)ccc2F)c1", "max dye-equivalent concentration": "inconclusive: 1.2 nM"}
{"smiles": "N#Cc1cccc(NC(=O)N2CC[C@@]3(CCCNC3)C2)c1", "max dye-equivalent concentration": "inactive"}
{"smiles": "Cc1ccc(-c2noc(CN(C(=O)CCCN3C(=O)c4ccccc4C3=O)C(C)C)n2)cc1", "max dye-equivalent concentration": "inconclusive: 1.3 nM"}
{"smiles": "Cn1c(=O)c2c(-c3ccccc3)n(CCCN3CCOCC3)cc2n(C)c1=O", "max dye-equivalent concentration": "inconclusive: 1.7 nM"}
{"smiles": "CCCc1ncc(C[n+]2ccccc2C)c(N)n1", "max dye-equivalent concentration": "inconclusive: 1.3 nM"}
{"smiles": "CCOC(=O)c1cc(C(=O)OCC)c2cc(Br)ccc2n1", "max dye-equivalent concentration": "inconclusive: 2.4 nM"}
{"smiles": "CC(NC(=O)c1cc2ccccc2o1)C(=O)O", "note": "(configuration not stated)", "max dye-equivalent concentration": "inconclusive: 1.6 nM"}
{"smiles": "O=c1c2ccccc2nc(SCc2nnc(-c3ccccc3Br)o2)n1-c1ccccc1", "max dye-equivalent concentration": "inconclusive: 1.2 nM"}
{"smiles": "COc1ncc2nc(-c3cn(C)c4ccccc34)c(=O)n(-c3ccccc3)c2n1", "max dye-equivalent concentration": "inactive"}
{"smiles": "O=C1NC(=O)C(c2ccccc2[N+](=O)[O-])=C1Nc1ccc(O)c(Cl)c1", "max dye-equivalent concentration": "inconclusive: 1.9 nM"}
{"smiles": "CC(=O)c1cccc(NS(=O)(=O)c2c(C)n[nH]c2C)c1", "max dye-equivalent concentration": "inconclusive: 1.2 nM"}
{"smiles": "Cn1c(=O)n(C)c2cc(NS(=O)(=O)c3ccc4c(c3)CCCC4)ccc21", "max dye-equivalent concentration": "inconclusive: 1.5 nM"}
{"smiles": "O=C(Cn1c(C2CC2)nc2ccccc2c1=O)Nc1ccc(Br)cc1", "max dye-equivalent concentration": "inconclusive: 1.2 nM"}
